Our source for the binding values is publication doi:10.1101/2024.03.06.583600.

By UniProt entry, the sequences of proteins in these tests, tags left out.
UniProt Q05397: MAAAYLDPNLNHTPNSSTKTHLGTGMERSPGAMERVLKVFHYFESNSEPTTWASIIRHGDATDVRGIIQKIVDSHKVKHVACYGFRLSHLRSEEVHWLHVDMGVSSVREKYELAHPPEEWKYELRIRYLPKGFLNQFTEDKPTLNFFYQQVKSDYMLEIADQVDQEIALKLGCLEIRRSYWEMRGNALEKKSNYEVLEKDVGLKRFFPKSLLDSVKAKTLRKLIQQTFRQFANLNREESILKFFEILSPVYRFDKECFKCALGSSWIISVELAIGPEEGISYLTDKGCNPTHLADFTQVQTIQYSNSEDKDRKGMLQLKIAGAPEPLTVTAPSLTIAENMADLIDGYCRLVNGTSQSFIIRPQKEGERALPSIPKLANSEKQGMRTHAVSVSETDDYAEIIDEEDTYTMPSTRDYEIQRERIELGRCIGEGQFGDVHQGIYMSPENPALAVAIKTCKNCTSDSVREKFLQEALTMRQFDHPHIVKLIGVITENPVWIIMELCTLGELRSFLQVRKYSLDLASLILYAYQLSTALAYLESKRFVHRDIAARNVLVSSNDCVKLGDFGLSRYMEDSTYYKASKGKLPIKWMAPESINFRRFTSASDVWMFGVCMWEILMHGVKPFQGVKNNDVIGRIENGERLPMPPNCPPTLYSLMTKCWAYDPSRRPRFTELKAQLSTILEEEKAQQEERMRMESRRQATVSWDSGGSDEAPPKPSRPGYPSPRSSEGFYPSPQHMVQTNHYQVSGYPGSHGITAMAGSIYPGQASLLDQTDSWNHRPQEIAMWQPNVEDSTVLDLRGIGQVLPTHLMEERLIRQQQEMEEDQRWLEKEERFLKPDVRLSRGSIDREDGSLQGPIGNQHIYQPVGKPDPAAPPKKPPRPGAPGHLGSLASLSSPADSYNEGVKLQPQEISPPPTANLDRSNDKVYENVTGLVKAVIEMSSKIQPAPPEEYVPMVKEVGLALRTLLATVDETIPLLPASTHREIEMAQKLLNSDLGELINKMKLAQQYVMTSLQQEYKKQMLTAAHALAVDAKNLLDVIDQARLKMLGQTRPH

No constants are given. Whether binding was seen depends on the method and setting. Binding seen in cells or lysates may run through a third protein. Some results given as binding are weak or reduced against the parent protein; the word gives no strength.

The target of the assay is T1, human cell-division cycle 14A phosphatase (CDC14A) (human (endogenous in CASMCs)) (UniProt Q9UNH5).
T1 sequence: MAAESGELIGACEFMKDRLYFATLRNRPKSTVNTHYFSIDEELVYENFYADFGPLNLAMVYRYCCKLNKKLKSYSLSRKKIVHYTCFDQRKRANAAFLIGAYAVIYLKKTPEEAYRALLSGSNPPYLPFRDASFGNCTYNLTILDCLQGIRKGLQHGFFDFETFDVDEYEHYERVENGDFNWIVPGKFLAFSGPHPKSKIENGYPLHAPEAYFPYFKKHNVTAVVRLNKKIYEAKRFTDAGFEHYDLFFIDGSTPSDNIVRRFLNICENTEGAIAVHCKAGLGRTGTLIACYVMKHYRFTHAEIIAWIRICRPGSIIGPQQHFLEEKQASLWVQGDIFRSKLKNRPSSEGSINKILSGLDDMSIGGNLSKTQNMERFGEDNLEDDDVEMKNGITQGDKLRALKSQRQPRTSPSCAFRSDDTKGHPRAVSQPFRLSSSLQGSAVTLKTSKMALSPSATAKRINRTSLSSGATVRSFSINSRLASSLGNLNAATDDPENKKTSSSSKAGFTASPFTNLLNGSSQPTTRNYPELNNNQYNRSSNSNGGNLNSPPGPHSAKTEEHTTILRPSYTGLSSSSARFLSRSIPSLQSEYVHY
Description: proximity ligation.

“focal adhesion kinase (FAK) (from UniProt Q05397 1-1052) (enzyme)”: the binding entry is on record as “binds”.

Take “focal adhesion kinase phosphorylated at Tyr397 (FAK-pY397) (from UniProt Q05397 1-1052) (enzyme)”: the binding result was “binds”.
